Results published in US20230321008A1, “INHIBITORS OF ACID SPHINGOMYELINASE FOR PREVENTING AND TREATING THE COVID-19 DISEASE” (priority 2020, published 2023).
For some assays here: At least one structure is not confirmed: it was looked up by name or label, or the drawing left a doubt. Some results were stated once for a whole list of compounds, not compound by compound.

How the values were obtained:
[1] = molecular target: T1, acid sphingomyelinase (ASM) (Homo sapiens, UniProt P17405); details: in vitro functional inhibition effect on ASM; criterion of a FIASMA medication; cited from earlier work
T1 sequence (P17405 47-631): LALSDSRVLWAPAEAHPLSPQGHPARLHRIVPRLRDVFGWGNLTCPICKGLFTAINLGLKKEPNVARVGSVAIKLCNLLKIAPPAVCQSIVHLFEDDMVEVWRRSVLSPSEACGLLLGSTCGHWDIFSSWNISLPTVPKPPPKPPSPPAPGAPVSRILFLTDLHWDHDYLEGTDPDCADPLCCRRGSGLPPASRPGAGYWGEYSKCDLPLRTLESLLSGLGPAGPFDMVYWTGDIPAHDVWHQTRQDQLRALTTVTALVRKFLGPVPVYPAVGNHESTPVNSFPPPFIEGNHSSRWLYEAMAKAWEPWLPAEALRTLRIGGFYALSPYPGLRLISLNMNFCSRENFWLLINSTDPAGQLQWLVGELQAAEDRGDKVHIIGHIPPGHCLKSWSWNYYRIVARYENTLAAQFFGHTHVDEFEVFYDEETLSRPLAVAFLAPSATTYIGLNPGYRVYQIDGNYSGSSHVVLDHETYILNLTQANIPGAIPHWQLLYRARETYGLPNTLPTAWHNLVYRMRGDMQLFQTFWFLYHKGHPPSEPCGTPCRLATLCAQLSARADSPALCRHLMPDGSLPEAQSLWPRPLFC

severe COVID-19 = assay: Example 2: multicenter observational retrospective cohort study, FIASMA medication use at baseline and intubation or death in patients hospitalized for severe COVID-19; format: in vivo, human; details: vs no FIASMA medication
Description: We included all adults aged 18 years or over who have been hospitalized in these medical centers for severe COVID-19. COVID-19 was ascertained by a positive reverse-transcriptase-polymerase-chain-reaction (RT-PCR) test from analysis of nasopharyngeal or oropharyngeal swab specimens. Severe COVID-19 at admission was defined as having at least one of the following criteria: respiratory rate > 24 breaths/min or < 12 breaths/min, resting peripheral capillary oxygen saturation in ambient air < 90%, temperature > 40° C., systolic blood pressure < 100 mm Hg or high lactate levels. AP-HP clinical Data Warehouse initiatives ensure patient information and informed consent regarding the different approved studies through a transparency portal in accordance with European Regulation on data protection and authorization n°1980120 from National Commission for Information Technology and Civil Liberties (CNIL).
We used data from the AP-HP Health Data Warehouse (‘Entrepôt de Données de Santé (EDS)’). This warehouse contains all available clinical data on all inpatient visits for COVID-19 to any Greater Paris University hospital. […]

COVID-19 = details: human, in vivo; cited from earlier work

| Compound | Residual ASM activity [1] | other results |
| --- | --- | --- |
| CN(C)CCC=C1c2ccccc2CCc2ccccc21 [Amitriptyline, amitriptyline] | lower than 50% | – |
| CCOC(=O)C1=C(COCCN)NC(C)=C(C(=O)OC)C1c1ccccc1Cl (centres unmarked) [Amlodipine, amlodipine] | – | Association of use at baseline with risk of intubation or death (in words) (severe COVID-19): effective preventive and curative treatments for reducing risk of death or intubation |
| O=C1CCc2ccc(OCCCCN3CCN(c4cccc(Cl)c4Cl)CC3)cc2N1 [Aripiprazole, aripiprazole] | lower than 50% | – |
| CN(C)CCCN1c2ccccc2CCc2ccc(Cl)cc21 [Clomipramine, clomipramine] | lower than 50% | – |
| CNCCC(Oc1ccc(C(F)(F)F)cc1)c1ccccc1 (centres unmarked) [Fluoxetine, fluoxetine] | lower than 50% | – |
| CN(C)C(=O)C(CCN1CCC(O)(c2ccc(Cl)cc2)CC1)(c1ccccc1)c1ccccc1 [Loperamide, loperamide] | lower than 50% | – |
| CN[C@H]1CC[C@@H](c2ccc(Cl)c(Cl)c2)c2ccccc21 [Sertraline, sertraline] | lower than 50% | – |
| CCC(CC)COC(=O)[C@H](C)N[P@](=O)(OC[C@H]1O[C@@](C#N)(c2ccc3c(N)ncnn23)[C@H](O)[C@@H]1O)Oc1ccccc1 [remdesivir] | – | Effect on mortality in patients hospitalized with COVID-19 (in words) (COVID-19): non-significant effect on mortality |
